The comparison behind a weaker result is the experiment's own reference, which may not be listed here. For some assays here: For at least one entry, the source does not settle the construct or the ends of the probe. For some assays here: At least one verdict rests on a figure or table, not on a statement of the authors.
Columns and labels:
Assay in all cases: SPR
[1] = system: MYC(151-439) + MAX(2-160) of commercial complex
[2] = system: MYC(2-439) full-length + MAX(2-160); conditions: range over canonical and mutant E-Boxes
[3] = system: MYC(352-437) + MAX(2-160) co-expressed
[4] = system: MbIIIa-MYC(352-437) + MAX(22-102); conditions: less pronounced effect than Mb0
[5] = system: MbIIIb-MYC(352-437) + MAX(22-102); conditions: less pronounced effect than Mb0

| Sequence | binding result [1] | binding result [2] | binding result ([3]; Kd only in figure) | binding result [4] | binding result [5] | binding result ([3]; weakly bound) |
| --- | --- | --- | --- | --- | --- | --- |
| CCGGTCATATGGCCTA (double strand) [Mutant E-Box 1 (low-affinity E-Box)] | binds more weakly | binds more weakly | binds more weakly |  |  |  |
| CCGGTCACGTGGCCTA (double strand) [E-Box (SPR)] |  |  |  | binds more weakly | binds more weakly |  |
| CCGGTTTAGCAGCCTA (double strand) [Negative control] |  |  |  |  |  | binds more weakly |
| CCGGTAACGTTGCCTA (double strand) [Mutant E-Box 2 (non E-Box)] | binds more weakly | binds more weakly | binds more weakly | binds more weakly | binds more weakly |  |
